System: dairy cows having a high milk performance (German Holstein cattle)
Experiment: Feeding study of trans-hex-2-enal and hexanal on feed intake, feed intake behavior, milk performance and milk composition of dairy cows
Type: in vivo
Details: 4.3 g/cow/day in TMR, LSQ means; for BFT (Back Fat Thickness): control 0.96; for MUN (milk-urea-nitrogen): control 239; for Body weight: control 670
Procedure: The purpose of the present study is to establish whether 4.3 g/cow/day of trans-hex-2-enal or 4.3 g/cow/day of hexanal affect the DMI value, the milk performance, the milk composition or the feed intake behavior (duration, frequency, etc.) of dairy cows.
The start of the study was calendar week 18 of the experimental year and the end of the study was calendar week 24 of the same year. The feed consumption was determined by means of feed troughs with electronic weight determination, produced by Insentec B.V. (Marknesse, Netherlands). The system identifies each animal by scanning the respective transponder on the neck band of the respective cow using a light barrier. After identification, the animal is allowed free access to the feed trough and the amount of feed taken in on each visit to the trough is recorded automatically.
The system thus determines all visits of each cow to the feed trough, the respective feed intake and the duration of the respective visit. The feed troughs were filled once a day at about 06.30 hours in the morning with an amount of about 70 kg of feed, after the residual feed of the previous day had been removed. During the morning milking, the feed troughs were closed for cleaning for a period of 20 to 30 minutes.
The milk yield was determined individually during each milking process and recorded by the Herd Management Software DairyPlan C21 (GEA Farm Technologies, Boenen, Germany). The cows were milked twice daily at 05.00 hours in the morning and 15.30 hours in the afternoon. Fresh water was freely available at all times.
Every Monday, after each milking, milk samples were taken and, for each cow, the milk composition (fat, protein, somatic cell count) was determined. The energy-corrected milk value (ECM) was determined according to the following equation: […]
All of the cows received a total mixed ration (TMR) (table 2) having a calculated mean daily feed intake of 22 kg of dry matter (DM). Trans-hex-2-enal and hexanal were added to the TMR and thus fed by a premix with wheat bran (trans-hex-2-enal/wheat bran for group A and hexanal/wheat bran for group B).
Samples of the TMR were withdrawn daily from each of the rations, combined to form a weekly sample and frozen until determination of the DM content of the TMRs. Samples of all feed components were taken every 14 days, frozen and pooled over the entire feeding trial up until laboratory analysis.
A standard model for statistical analysis using all parameters was adapted to the weekly data. This is a general, linear, mixed model with the cow as a chance effect and containing the following co-variables:
For the treatment effect, an “overall” P value was presented, and also a P value for the differences between the groups, which were tested both adapted and also non-adapted by means of the Tukey test.

Structure (SMILES) | BFT (Back Fat Thickness) [cm] | MUN (milk-urea-nitrogen) [mg/L] | Body weight [kg]
CCCCCC=O [Hexanal, hexanal] | 0.92 | 241 | 653
CCC/C=C/C=O [Trans-hex-2-enal] | 0.93 | 236 | 671
